Experimental data: patent publication US12729225B2, “Non-canonical SWI/SNF complex and uses thereof” (Dana-Farber Cancer Institute, Inc., priority 2018, dated 2026)

B1: LUC7L2 (protein, UniProt Q9Y383 1-392, looked up)
Putative RNA-binding protein …: MSAQAQMRAMLDQLMGTSRDGDTTRQRIKFSDDRVCKSHLLNCCPHDVLSGTRMDLGECLKVHDLALRADYEIASKEQDFFFELDAMDHLQSFIADCDRRTEVAKKRLAETQEEISAEVAAKAERVHELNEEIGKLLAKVEQLGAEGNVEESQKVMDEVEKARAKKREAEEVYRNSMPASSFQQQKLRVCEVCSAYLGLHDNDRRLADHFGGKLHLGFIEIREKLEELKRVVAEKQEKRNQERLKRREEREREEREKLRRSRSHSKNPKRSRSREHRRHRSRSMSRERKRRTRSKSREKRHRHRSRSSSRSRSRSHQRSRHSSRDRSRERSKRRSSKERFRDQDLASCDRDRSSRDRSPRDRDRKDKKRSYESANGRSEDRRSSEEREAGEI
B2: FTSJ3 (protein, UniProt Q8IY81 1-847, looked up)
pre-rRNA 2'-O-ribose RNA …: MGKKGKVGKSRRDKFYHLAKETGYRSRSAFKLIQLNRRFQFLQKARALLDLCAAPGGWLQVAAKFMPVSSLIVGVDLVPIKPLPNVVTLQQDITTERCRQALRKELKTWKVDVVLNDGAPNVGASWVHDAYSQAHLTLMALRLACDFLARGGSFITKVFRSRDYQPLLWIFQQLFRRVQATKPQASRHESAEIFVVCQGFLAPDKVDSKFFDPKFAFKEVEVQAKTVTELVTKKKPKAEGYAEGDLTLYHRTSVTDFLRAANPVDFLSKASEIMVDDEELAQHPATTEDIRVCCQDIRVLGRKELRSLLNWRTKLRRYVAKKLKEQAKALDISLSSGEEDEGDEEDSTAGTTKQPSKEEEEEEEEEQLNQTLAEMKAQEVAELKRKKKKLLREQRKQRERVELKMDLPGVSIADEGETGMFSLSTIRGHQLLEEVTQGDMSAADTFLSDLPRDDIYVSDVEDDGDDTSLDSDLDPEELAGVRGHQGLRDQKRMRLTEVQDDKEEEEEENPLLVPLEEKAVLQEEQANLWFSKGSFAGIEDDADEALEISQAQLLFENRRKGRQQQQKQQLPQTPPSCLKTEIMSPLYQDEAPKGTEASSGTEAATGLEGEEKDGISDSDSSTSSEEEESWEPLRGKKRSRGPKSDDDGFEIVPIEDPAKHRILDPEGLALGAVIASSKKAKRDLIDNSFNRYTFNEDEGELPEWFVQEEKQHRIRQLPVGKKEVEHYRKRWREINARPIKKVAEAKARKKRRMLKRLEQTRKKAEAVVNTVDISEREKVAQLRSLYKKAGLGKEKRHVTYVVAKKGVGRKVRRPAGVRGHFKVVDSRMKKDQRAQQRKEQKKKHKRK
B3: ALDH1B1 (protein, UniProt P30837 18-517, looked up)
Aldehyde dehydrogenase X, …: RYSSAAALPSPILNPDIPYNQLFINNEWQDAVSKKTFPTVNPTTGEVIGHVAEGDRADVDRAVKAAREAFRLGSPWRRMDASERGRLLNRLADLVERDRVYLASLETLDNGKPFQESYALDLDEVIKVYRYFAGWADKWHGKTIPMDGQHFCFTRHEPVGVCGQIIPWNFPLVMQGWKLAPALATGNTVVMKVAEQTPLSALYLASLIKEAGFPPGVVNIITGYGPTAGAAIAQHVDVDKVAFTGSTEVGHLIQKAAGDSNLKRVTLELGGKSPSIVLADADMEHAVEQCHEALFFNMGQCCCAGSRTFVEESIYNEFLERTVEKAKQRKVGNPFELDTQQGPQVDKEQFERVLGYIQLGQKEGAKLLCGGERFGERGFFIKPTVFGGVQDDMRIAKEEIFGPVQPLFKFKKIEEVVERANNTRYGLAAAVFTRDLDKAMYFTQALQAGTVWVNTYNIVTCHTPFGGFKESGNGRELGEDGLKAYTEVKTVTIKVPQKNS
B4: DDX27 (protein, UniProt Q96GQ7 1-765, looked up)
Probable ATP-dependent RNA …: MLADLGLIGTIGEDDEVPVEPESDSGDEEEEGPIVLGRRQKALGKNRSADFNPDFVFTEKEGTYDGSWALADVMSQLKKKRAATTLDEKIEKVRKKRKTEDKEAKSGKLEKEKEAKEGSEPKEQEDLQENDEEGSEDEASETDYSSADENILTKADTLKVKDRKKKKKKGQEAGGFFEDASQYDENLSFQDMNLSRPLLKAITAMGFKQPTPIQKACIPVGLLGKDICACAATGTGKTAAFALPVLERLIYKPRQAPVTRVLVLVPTRELGIQVHSVTRQLAQFCNITTCLAVGGLDVKSQEAALRAAPDILIATPGRLIDHLHNCPSFHLSSIEVLILDEADRMLDEYFEEQMKEIIRMCSHHRQTMLFSATMTDEVKDLASVSLKNPVRIFVNSNTDVAPFLRQEFIRIRPNREGDREAIVAALLTRTFTDHVMLFTQTKKQAHRMHILLGLMGLQVGELHGNLSQTQRLEALRRFKDEQIDILVATDVAARGLDIEGVKTVINFTMPNTIKHYVHRVGRTARAGRAGRSVSLVGEDERKMLKEIVKAAKAPVKARILPQDVILKFRDKIEKMEKDVYAVLQLEAEEKEMQQSEAQINTAKRLLEKGKEAVVQEPERSWFQTKEERKKEKIAKALQEFDLALRGKKKRKKFMKDAKKKGEMTAEERSQFEILKAQMFAERLAKRNRRAKRARAMPEEEPVRGPAKKQKQGKKSVFDEELTNTSKKALKQYRAGPSFEERKQLGLPHQRRGGNFKSKSRYKRRK
B5: STOML2 (protein, UniProt Q9UJZ1 29-356, looked up)
Stomatin-like protein 2, …: SSGLPRNTVVLFVPQQEAWVVERMGRFHRILEPGLNILIPVLDRIRYVQSLKEIVINVPEQSAVTLDNVTLQIDGVLYLRIMDPYKASYGVEDPEYAVTQLAQTTMRSELGKLSLDKVFRERESLNASIVDAINQAADCWGIRCLRYEIKDIHVPPRVKESMQMQVEAERRKRATVLESEGTRESAINVAEGKKQAQILASEAEKAEQINQAAGEASAVLAKAKAKAEAIRILAAALTQHNGDAAASLTVAEQYVSAFSKLAKDSNTILLPSNPGDVTSMVAQAMGVYGALTKAPVPGTPDSLSSGSSRDVQGTDASLDEELDRVKMS
B6: LUC7L3 (protein, UniProt O95232 1-432, looked up)
Luc7-like protein 3: MISAAQLLDELMGRDRNLAPDEKRSNVRWDHESVCKYYLCGFCPAELFTNTRSDLGPCEKIHDENLRKQYEKSSRFMKVGYERDFLRYLQSLLAEVERRIRRGHARLALSQNQQSSGAAGPTGKNEEKIQVLTDKIDVLLQQIEELGSEGKVEEAQGMMKLVEQLKEERELLRSTTSTIESFAAQEKQMEVCEVCGAFLIVGDAQSRVDDHLMGKQHMGYAKIKATVEELKEKLRKRTEEPDRDERLKKEKQEREEREKEREREREERERKRRREEEEREKERARDRERRKRSRSRSRHSSRTSDRRCSRSRDHKRSRSRERRRSRSRDRRRSRSHDRSERKHRSRSRDRRRSKSRDRKSYKHRSKSRDREQDRKSKEKEKRGSDDKKSSVKSGSREKQSEDTNTESKESDTKNEVNGTSEDIKSEGDTQSN
B7: UPF1 (protein, UniProt Q92900 1-1129, looked up)
Regulator of nonsense …: MSVEAYGPSSQTLTFLDTEEAELLGADTQGSEFEFTDFTLPSQTQTPPGGPGGPGGGGAGGPGGAGAGAAAGQLDAQVGPEGILQNGAVDDSVAKTSQLLAELNFEEDEEDTYYTKDLPIHACSYCGIHDPACVVYCNTSKKWFCNGRGNTSGSHIVNHLVRAKCKEVTLHKDGPLGETVLECYNCGCRNVFLLGFIPAKADSVVVLLCRQPCASQSSLKDINWDSSQWQPLIQDRCFLSWLVKIPSEQEQLRARQITAQQINKLEELWKENPSATLEDLEKPGVDEEPQHVLLRYEDAYQYQNIFGPLVKLEADYDKKLKESQTQDNITVRWDLGLNKKRIAYFTLPKTDSGNEDLVIIWLRDMRLMQGDEICLRYKGDLAPLWKGIGHVIKVPDNYGDEIAIELRSSVGAPVEVTHNFQVDFVWKSTSFDRMQSALKTFAVDETSVSGYIYHKLLGHEVEDVIIKCQLPKRFTAQGLPDLNHSQVYAVKTVLQRPLSLIQGPPGTGKTVTSATIVYHLARQGNGPVLVCAPSNIAVDQLTEKIHQTGLKVVRLCAKSREAIDSPVSFLALHNQIRNMDSMPELQKLQQLKDETGELSSADEKRYRALKRTAERELLMNADVICCTCVGAGDPRLAKMQFRSILIDESTQATEPECMVPVVLGAKQLILVGDHCQLGPVVMCKKAAKAGLSQSLFERLVVLGIRPIRLQVQYRMHPALSAFPSNIFYEGSLQNGVTAADRVKKGFDFQWPQPDKPMFFYVTQGQEEIASSGTSYLNRTEAANVEKITTKLLKAGAKPDQIGIITPYEGQRSYLVQYMQFSGSLHTKLYQEVEIASVDAFQGREKDFIILSCVRANEHQGIGFLNDPRRLNVALTRARYGVIIVGNPKALSKQPLWNHLLNYYKEQKVLVEGPLNNLRESLMQFSKPRKLVNTINPGARFMTTAMYDAREAIIPGSVYDRSSQGRPSSMYFQTHDQIGMISAGPSHVAAMNIPIPFNLVMPPMPPPGYFGQANGPAAGRGTPKGKTGRGGRQKNRFGLPGPSQTNLPNSQASQDVASQPFSQGALTQGYISMSQPSQMSQPGLSQPELSQDSYLGDEFKSQIDVALSQDSTYQGERAYQHGGVTGLSQY
B8: SS18L1 (protein)
chain: MSVAFASARPRGKGEVTQQTIQKMLDENHHLIQCILEYQSKGKTAECTQYQQILHRNLVYLATIADSNQNMQSLLPAPPTQNMNLGPGALTQSGSSQGLHSQGSLSDAISTGLPPSSLLQGQIGNGPSHVSMQQTAPNTLPTTSMSISGPGYSHAGPASQGVPMQGQGTIGNYVSRTNINMQSNPVSMMQQQAATSHYSSAQGGSQHYQGQSSIAMMGQGSQGSSMMGQRPMAPYRPSQQGSSQQYLGQEEYYGEQYSHSQGAAEPMGQQYYPDGHGDYAYQQSSYTEQSYDRSFEESTQHYYEGGNSQYSQQQAGYQQGAAQQQTYSQQQYPSQQSYPGQQQGYGSAQGAPSQYPGYQQGQGQQYGSYRAPQTAPSAQQQRPYGYEQGQYGNYQQ
B9: CAPS2 (protein, UniProt Q9BXY5 1-538, looked up)
Calcyphosin-2: MDLEVKGVAATSRSQIQPFFGRKKPLQQRWTSESWTNQNSCPPVVPRLDLGSLVDSDDEDNFSYIPLSTANLPNSSSTLGWVTPCQTPYTQYHLNKLDQNIIPENLPAPTDKCKLKYQQCKTEIKEGYKQYSQRNAENTKSNVTHKQSPRNKIDEKCVQDEEANTDDLTTLDRKAILQQGYADNSCDKQQRARKLDAEIVAAEKKKQIVAEQVMIDHLSRAVISDPEQNLAIEQKESDHILPDSKMTPLRFRKRTLHETKIRTHSTLTENVLSHKLQFDGRIVSRNGRDACRELIGFFFTHDQSLTIYEYRQFGKNRTNVLPFIQKSIYSHQCGRRKGKQYRLGDFYVGATLTFLSSDHLSLPESIKENTLLKLRITNIDQIALDSLKTASMEQEDDIIIQETNDRLVFKAIQDVLKEKLHKRGVRILTGLGKYFQQLDKEGNGLLDKADFKQALKVFHLEVSEKDFESAWLILNDNGNGKVDYGEFKRGIIGEMNEYRKSYVRKAFMKLDFNKSGSVPIINIRKCYCAKKHSQVISG

The molecules below were run on mSWI/SNF complexes (assay: mSWI/SNF complex purification with HA-tagged baits and mass spectrometry (peptide counts)). Conditions: 293_HA-BRD7: HA-BRD7 bait purification, total peptide count per co-purified protein.
Parameters: species or system human

| Molecule | Total |
| --- | --- |
| B1 | 12 |
| B2 | 11 |
| B3 | 11 |
| B4 | 11 |
| B5 | 11 |
| B6 | 10 |

Same assay, conditions: 293_HA-BRD7: HA-BRD7 bait purification, unique peptide count per co-purified protein

| Molecule | Unique |
| --- | --- |
| B1 | 11 |
| B2 | 11 |
| B3 | 11 |
| B4 | 11 |
| B5 | 10 |
| B6 | 10 |

Same assay, conditions: 293_HA-BRD7 bait purification, mass spectrometry; total peptide count per identified protein

| Molecule | Total |
| --- | --- |
| B7 | 1 |

Same assay, conditions: 293_HA-BRD7 bait purification, mass spectrometry; unique peptide count per identified protein

| Molecule | Unique |
| --- | --- |
| B7 | 1 |

Same assay, conditions: 293_HA-DPF2 purification, total peptides

| Molecule | Total |
| --- | --- |
| B3 | 1 |
| B8 | 3 |
| B9 | 2 |

Same assay, conditions: 293_HA-DPF2 purification, unique peptides

| Molecule | Unique |
| --- | --- |
| B3 | 1 |
| B8 | 2 |
| B9 | 1 |
